Experimental data: the supplement of paper PMC12889115
The other results are listed elsewhere or left out. Values are raw readings; no control value is given beside them.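 In the initial screen, polymyxin B was used at a concentration that permeabilizes Salmonella's outer membrane but not its inner membrane. Maximum growth was set by DMSO wells with or without polymyxin B. Since plates varied, data were ranked per plate, and compounds giving the lowest OD600 advanced as hits.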

Tested on: Salmonella enterica serovar Typhimurium SL1344
Test: bacterial growth OD600 after 18 h with compound and polymyxin B; higher = more bacterial growth (less inhibition)
Details: 50 µM, Mueller-Hinton broth

Compound: OC1CCN([C@@H]2CCN(Cc3cccc4c3sc3ccccc34)C[C@H]2O)CC1
- bacterial growth OD600 (polymyxin B 0.75 µg/mL): 0.449

Compound: c1cc(CN(CCN2CCCCC2)CC2CCCN(C3CCCC3)C2)ccn1 (stereo unspecified)
- bacterial growth OD600 (polymyxin B 0.75 µg/mL): 0.847

Compound: CCn1ccnc1CN(C)C(=O)CC(c1ccccc1)c1cccc(Cl)c1 (stereo unspecified)
- bacterial growth OD600 (polymyxin B 1 µg/mL): 0.022

Compound: Cc1nc(CC(=O)NCC2CCC3(CCN(Cc4cccnc4)CC3)O2)cs1 (stereo unspecified)
- bacterial growth OD600 (polymyxin B 0.75 µg/mL): 0.862

Compound: CCCN(CC1CCCO1)C(=O)c1ccc(-n2cc(NC(=O)c3cccnc3)cn2)cc1 (stereo unspecified)
- bacterial growth OD600 (polymyxin B 0.75 µg/mL): 0.833

Compound: O=C(c1cc(COc2cncc(Cl)c2)on1)N1CCC(Oc2cccnc2)CC1
- bacterial growth OD600 (polymyxin B 1 µg/mL): 0.921

Compound: O=C(NCCc1ccccc1)C1CCN(C2CCN(C(=O)c3ccco3)CC2)CC1
- bacterial growth OD600 (polymyxin B 0.75 µg/mL): 0.851

Compound: C#CCN(CC=C)C(=O)CC1C(=O)NCCN1CCC(C)C (stereo unspecified)
- bacterial growth OD600 (polymyxin B 1 µg/mL): 0.942

Compound: CC1(C(=O)NC2CC(=O)N(Cc3cccc(F)c3)C2)CC1 (stereo unspecified)
- bacterial growth OD600 (polymyxin B 1 µg/mL): 0.889

Compound: COc1cccc(CCC2CCCN(C3CCSCC3)C2)c1 (stereo unspecified)
- bacterial growth OD600 (polymyxin B 0.75 µg/mL): 0.792

Compound: O=C(NCC1CCCO1)C1CCN(C2CCN(C(=O)CCC3CCCCC3)CC2)CC1 (stereo unspecified)
- bacterial growth OD600 (polymyxin B 1 µg/mL): 0.736

Compound: O=C(Nc1ccnn1C1CCN(C(=O)CCc2ccccc2Cl)CC1)C1CC1
- bacterial growth OD600 (polymyxin B 1 µg/mL): 0.931

Compound: O=C(c1ccc(F)cc1Cl)N1CCCC(CO)(Cc2ccc(F)cc2)C1 (stereo unspecified)
- bacterial growth OD600 (polymyxin B 1 µg/mL): 1.13

Compound: CC(C)CN1CCC(CN(C)C(=O)CCc2nnc(-c3ccc4c(c3)OCO4)o2)CC1
- bacterial growth OD600 (polymyxin B 0.75 µg/mL): 0.76

Compound: Cc1ccc(CN(C)Cc2cnc(S(=O)(=O)Cc3ccccc3)n2CC(C)C)o1
- bacterial growth OD600 (polymyxin B 0.75 µg/mL): 0.632

Compound: COc1cc(C(=O)N(C)CCc2cnn(C)c2)ccc1OC1CCN(C2CCCC2)CC1
- bacterial growth OD600 (polymyxin B 1 µg/mL): 0.889

Compound: COc1ccc(C(=O)NC2CC(=O)N(Cc3ccc(F)cc3)C2)cc1C (stereo unspecified)
- bacterial growth OD600 (polymyxin B 1 µg/mL): 0.909

Compound: CCCc1cc(CNC(=O)c2ccc(N3CCN(CC)CC3)nc2)on1
- bacterial growth OD600 (polymyxin B 1 µg/mL): 1.15

Compound: O=C(CCc1ccc2c(c1)OCO2)NCCN1Cc2ccccc2OC(c2ccsc2)C1 (stereo unspecified)
- bacterial growth OD600 (polymyxin B 0.75 µg/mL): 0.484

Compound: Cn1cc(CN2CCc3c([nH]c4ccccc34)C2C2CCCCC2)cn1 (stereo unspecified)
- bacterial growth OD600 (polymyxin B 0.75 µg/mL): 0.697

Compound: O=C1CC(NS(=O)(=O)N2CCCCC2)CN1CCc1ccc(F)cc1 (stereo unspecified)
- bacterial growth OD600 (polymyxin B 1 µg/mL): 0.831

Compound: O=C(NCC1Cc2cc(Cl)cc(-c3ccncc3)c2O1)[C@@H]1C[C@@H]2C=C[C@H]1C2 (stereo partly specified)
- bacterial growth OD600 (polymyxin B 0.75 µg/mL): 0.004

Compound: COc1c(C)cc(C(=O)C2CCCN(Cc3csc(C(C)=O)c3)C2)cc1C (stereo unspecified)
- bacterial growth OD600 (polymyxin B 1 µg/mL): 0.713

Compound: CC(C)/C=C/C(=O)N1CCC(C2(c3cccnc3)NC(=O)N(CCc3cccs3)C2=O)CC1 (stereo unspecified)
- bacterial growth OD600 (polymyxin B 0.75 µg/mL): 0.859

Compound: Cc1cccnc1CNC(=O)CC(c1ccccc1)c1ccc2c(c1)OCO2 (stereo unspecified)
- bacterial growth OD600 (polymyxin B 0.75 µg/mL): 0.468

Compound: O=C(NCC(F)(F)F)C1CCC(=O)N(CCc2cccc(F)c2)C1 (stereo unspecified)
- bacterial growth OD600 (polymyxin B 1 µg/mL): 0.994

Compound: Cc1c(CN2CCOc3ccc(C4=CCCCC4)cc3C2)c(=O)n(-c2ccccc2)n1C
- bacterial growth OD600 (polymyxin B 0.75 µg/mL): 0.011

Compound: O=C(c1ccc(-c2ccccc2)c(F)c1)C1CCCN(Cc2cccnc2)C1 (stereo unspecified)
- bacterial growth OD600 (polymyxin B 1 µg/mL): 0.364

Compound: COc1ccccc1C(=O)Nc1cccc(N2CCC(N[C@@H](Cc3ccccc3)C(N)=O)CC2)c1
- bacterial growth OD600 (polymyxin B 0.75 µg/mL): 0.972

Compound: O=C(NC1CC(=O)N(Cc2cccc3ccccc23)C1)C1CCC1 (stereo unspecified)
- bacterial growth OD600 (polymyxin B 1 µg/mL): 0.931

Compound: CC(=O)N1CCC[C@H]1C(=O)N1CCOc2ccc(CN3CCC(OCc4ccccc4)CC3)cc2C1
- bacterial growth OD600 (polymyxin B 0.75 µg/mL): 0.834
